Measurements from publication doi:10.1101/2022.10.09.510609.
No constants are given. Whether binding was seen depends on the method and setting. Binding seen in cells or lysates may run through a third protein. Some results given as binding are weak or reduced against the parent protein; the word gives no strength.

Sequences of proteins named here, by UniProt entry; tags and fusion partners are left off.
UniProt O14497: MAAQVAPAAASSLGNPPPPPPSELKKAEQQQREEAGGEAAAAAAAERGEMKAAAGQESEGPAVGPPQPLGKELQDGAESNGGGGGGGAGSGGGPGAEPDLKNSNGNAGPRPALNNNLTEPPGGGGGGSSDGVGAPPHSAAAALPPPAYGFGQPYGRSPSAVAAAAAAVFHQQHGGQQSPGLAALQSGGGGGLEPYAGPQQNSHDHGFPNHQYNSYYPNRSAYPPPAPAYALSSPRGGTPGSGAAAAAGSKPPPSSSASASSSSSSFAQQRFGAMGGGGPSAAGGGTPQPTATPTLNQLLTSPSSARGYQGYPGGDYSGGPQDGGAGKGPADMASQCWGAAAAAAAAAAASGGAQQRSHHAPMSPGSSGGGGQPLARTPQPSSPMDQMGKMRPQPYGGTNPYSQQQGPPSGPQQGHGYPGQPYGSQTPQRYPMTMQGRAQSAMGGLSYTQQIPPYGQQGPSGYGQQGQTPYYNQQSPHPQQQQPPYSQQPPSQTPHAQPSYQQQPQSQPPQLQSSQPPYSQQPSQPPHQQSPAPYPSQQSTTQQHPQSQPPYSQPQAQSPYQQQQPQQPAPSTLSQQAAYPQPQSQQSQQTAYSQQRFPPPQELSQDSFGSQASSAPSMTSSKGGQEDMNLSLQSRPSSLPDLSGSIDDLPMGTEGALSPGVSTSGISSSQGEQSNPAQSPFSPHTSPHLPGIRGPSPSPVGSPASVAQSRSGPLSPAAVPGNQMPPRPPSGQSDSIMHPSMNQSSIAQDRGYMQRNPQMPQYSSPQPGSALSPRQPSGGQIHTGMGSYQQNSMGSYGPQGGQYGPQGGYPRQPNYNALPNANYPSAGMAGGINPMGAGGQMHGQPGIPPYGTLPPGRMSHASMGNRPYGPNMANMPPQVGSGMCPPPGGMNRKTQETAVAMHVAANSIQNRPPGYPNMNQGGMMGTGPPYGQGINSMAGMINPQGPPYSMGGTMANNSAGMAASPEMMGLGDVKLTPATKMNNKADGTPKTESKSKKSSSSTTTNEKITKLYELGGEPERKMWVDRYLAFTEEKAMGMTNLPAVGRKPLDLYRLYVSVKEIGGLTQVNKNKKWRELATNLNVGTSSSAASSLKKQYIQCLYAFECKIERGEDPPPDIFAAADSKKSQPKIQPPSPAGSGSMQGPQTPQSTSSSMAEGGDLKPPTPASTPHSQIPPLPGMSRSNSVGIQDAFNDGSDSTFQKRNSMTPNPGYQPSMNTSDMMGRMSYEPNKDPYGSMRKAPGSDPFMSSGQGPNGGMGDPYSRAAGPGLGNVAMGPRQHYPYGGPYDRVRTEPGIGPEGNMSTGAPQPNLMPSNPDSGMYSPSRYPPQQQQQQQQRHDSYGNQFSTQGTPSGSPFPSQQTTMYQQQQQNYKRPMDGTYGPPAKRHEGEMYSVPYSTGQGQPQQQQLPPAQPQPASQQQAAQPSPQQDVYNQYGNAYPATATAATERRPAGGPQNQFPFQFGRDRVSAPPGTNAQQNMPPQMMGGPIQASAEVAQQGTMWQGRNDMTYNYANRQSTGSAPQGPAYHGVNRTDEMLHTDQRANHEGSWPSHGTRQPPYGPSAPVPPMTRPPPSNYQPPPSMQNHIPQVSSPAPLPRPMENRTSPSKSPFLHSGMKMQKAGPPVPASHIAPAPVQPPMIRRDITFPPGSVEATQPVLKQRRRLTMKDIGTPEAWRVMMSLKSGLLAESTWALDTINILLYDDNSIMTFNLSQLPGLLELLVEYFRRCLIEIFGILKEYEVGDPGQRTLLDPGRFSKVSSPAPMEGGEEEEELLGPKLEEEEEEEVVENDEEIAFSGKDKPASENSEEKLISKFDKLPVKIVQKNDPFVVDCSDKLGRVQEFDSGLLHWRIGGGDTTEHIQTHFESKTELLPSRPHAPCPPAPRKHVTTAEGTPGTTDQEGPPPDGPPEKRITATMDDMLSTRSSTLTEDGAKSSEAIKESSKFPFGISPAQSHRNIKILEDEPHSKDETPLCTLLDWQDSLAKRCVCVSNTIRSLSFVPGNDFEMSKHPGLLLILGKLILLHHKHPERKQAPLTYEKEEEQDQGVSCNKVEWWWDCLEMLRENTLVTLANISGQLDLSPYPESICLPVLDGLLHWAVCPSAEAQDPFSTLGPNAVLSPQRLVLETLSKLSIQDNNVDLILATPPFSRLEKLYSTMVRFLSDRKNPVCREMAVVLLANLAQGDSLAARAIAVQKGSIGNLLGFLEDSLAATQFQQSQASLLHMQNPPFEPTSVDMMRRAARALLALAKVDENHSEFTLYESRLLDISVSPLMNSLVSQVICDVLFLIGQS
UniProt Q92922: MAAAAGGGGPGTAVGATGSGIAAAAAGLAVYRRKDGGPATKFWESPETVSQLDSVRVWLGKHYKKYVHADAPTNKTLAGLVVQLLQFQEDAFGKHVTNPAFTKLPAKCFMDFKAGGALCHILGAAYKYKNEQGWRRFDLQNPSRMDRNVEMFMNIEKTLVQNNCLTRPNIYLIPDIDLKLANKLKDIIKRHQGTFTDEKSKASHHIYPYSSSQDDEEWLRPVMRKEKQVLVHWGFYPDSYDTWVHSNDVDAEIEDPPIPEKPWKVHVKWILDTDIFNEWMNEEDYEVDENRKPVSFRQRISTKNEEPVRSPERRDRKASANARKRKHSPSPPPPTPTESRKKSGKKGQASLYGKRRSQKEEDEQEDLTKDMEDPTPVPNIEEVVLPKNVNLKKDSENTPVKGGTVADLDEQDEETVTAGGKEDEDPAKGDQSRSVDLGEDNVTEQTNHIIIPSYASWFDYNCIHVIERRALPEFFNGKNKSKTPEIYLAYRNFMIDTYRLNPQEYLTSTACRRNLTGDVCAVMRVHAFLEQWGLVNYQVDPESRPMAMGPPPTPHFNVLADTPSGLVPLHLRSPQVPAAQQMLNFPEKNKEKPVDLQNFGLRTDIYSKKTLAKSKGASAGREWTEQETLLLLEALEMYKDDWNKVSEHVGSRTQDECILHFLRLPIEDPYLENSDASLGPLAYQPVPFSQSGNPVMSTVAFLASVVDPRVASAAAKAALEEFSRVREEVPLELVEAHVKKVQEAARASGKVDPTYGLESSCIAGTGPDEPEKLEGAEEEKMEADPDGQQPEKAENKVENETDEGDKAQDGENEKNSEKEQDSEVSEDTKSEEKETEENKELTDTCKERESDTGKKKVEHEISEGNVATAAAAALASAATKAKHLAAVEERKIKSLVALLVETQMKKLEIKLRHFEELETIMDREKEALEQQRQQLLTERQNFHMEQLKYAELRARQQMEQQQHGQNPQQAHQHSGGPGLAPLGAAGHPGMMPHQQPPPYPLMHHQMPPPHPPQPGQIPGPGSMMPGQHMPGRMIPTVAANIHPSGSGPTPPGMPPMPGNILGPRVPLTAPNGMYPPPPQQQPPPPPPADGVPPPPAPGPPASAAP
UniProt Q12824: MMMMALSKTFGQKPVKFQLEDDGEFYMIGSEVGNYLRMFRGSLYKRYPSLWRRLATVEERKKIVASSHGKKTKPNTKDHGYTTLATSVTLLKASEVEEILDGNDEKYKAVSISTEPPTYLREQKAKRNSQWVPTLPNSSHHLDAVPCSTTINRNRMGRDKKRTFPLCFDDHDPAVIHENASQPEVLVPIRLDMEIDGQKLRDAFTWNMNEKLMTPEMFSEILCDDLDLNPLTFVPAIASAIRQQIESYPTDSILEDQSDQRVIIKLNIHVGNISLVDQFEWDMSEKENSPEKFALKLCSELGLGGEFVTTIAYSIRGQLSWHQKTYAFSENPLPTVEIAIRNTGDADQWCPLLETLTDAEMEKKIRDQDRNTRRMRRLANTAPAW
UniProt Q8TAQ2: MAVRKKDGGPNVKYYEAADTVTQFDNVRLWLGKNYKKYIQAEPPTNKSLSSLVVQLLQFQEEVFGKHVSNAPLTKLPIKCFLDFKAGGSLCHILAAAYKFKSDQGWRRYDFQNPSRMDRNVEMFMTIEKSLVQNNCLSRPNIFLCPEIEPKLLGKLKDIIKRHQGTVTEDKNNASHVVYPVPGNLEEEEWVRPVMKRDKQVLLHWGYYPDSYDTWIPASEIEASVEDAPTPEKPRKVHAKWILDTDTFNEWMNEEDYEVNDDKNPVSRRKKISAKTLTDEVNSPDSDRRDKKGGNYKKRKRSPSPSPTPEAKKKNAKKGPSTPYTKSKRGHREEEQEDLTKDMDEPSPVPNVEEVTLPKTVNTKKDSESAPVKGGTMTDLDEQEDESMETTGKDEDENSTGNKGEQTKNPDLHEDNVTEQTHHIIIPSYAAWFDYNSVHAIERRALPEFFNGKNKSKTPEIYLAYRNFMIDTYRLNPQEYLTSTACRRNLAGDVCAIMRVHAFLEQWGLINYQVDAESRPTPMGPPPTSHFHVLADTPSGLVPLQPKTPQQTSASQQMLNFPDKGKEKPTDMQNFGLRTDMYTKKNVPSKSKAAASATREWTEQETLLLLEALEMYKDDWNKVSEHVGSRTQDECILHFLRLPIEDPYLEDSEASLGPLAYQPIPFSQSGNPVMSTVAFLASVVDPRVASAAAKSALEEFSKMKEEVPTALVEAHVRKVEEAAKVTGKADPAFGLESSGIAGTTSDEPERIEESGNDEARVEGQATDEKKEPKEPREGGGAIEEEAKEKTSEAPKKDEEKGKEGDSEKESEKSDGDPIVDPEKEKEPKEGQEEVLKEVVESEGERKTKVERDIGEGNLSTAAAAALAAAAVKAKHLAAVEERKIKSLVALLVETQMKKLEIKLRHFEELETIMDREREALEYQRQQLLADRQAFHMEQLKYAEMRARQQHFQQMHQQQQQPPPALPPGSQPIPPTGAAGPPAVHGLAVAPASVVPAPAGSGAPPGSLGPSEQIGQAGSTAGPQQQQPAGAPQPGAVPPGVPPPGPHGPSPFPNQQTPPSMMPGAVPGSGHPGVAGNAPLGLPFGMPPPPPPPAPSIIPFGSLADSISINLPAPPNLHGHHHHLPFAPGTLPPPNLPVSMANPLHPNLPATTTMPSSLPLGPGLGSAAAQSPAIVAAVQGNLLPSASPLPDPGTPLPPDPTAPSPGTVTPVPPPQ

B1: ASCL1 (protein, UniProt P50553 1-236)
chain: MESSAKMESGGAGQQPQPQPQQPFLPPAACFFATAAAAAAAAAAAAAQSAQQQQQQQQQQQQAPQLRPAADGQPSGGGHKSAPKQVKRQRSSSPELMRCKRRLNFSGFGYSLPQQQPAAVARRNERERNRVKLVNLGFATLREHVPNGAANKKMSKVETLRSAVEYIRALQQLLDEHDAVSAAFQAGVLSPTISPNYSNDLNSMAGSPVSSYSSDEGSYDPLSPEEQELLDFTNWF

What was measured:
[1] = biological target: T1, ASCL1 (human (endogenous in iPSC-derived neural cultures and fetal cortex)) (UniProt P50553); test: proximity ligation
T1 sequence: B1 chain

[2] = biological target: T1, ASCL1 (human (endogenous in iPSC-derived neural cultures and fetal cortex)); test: proximity ligation; remark: listed apart in the source
[3] = biological target: T1, ASCL1 (human (endogenous in iPSC-derived neural cultures and fetal cortex)); test: co-IP
[4] = biological target: ARID1A (human (endogenous in iPSC-derived neural cultures)) (UniProt O14497); test: co-IP
[5] = biological target: SMARCC1 (human (endogenous in iPSC-derived neural cultures)) (UniProt Q92922); test: co-IP

Molecule | binding [1] | binding [2] | binding [3] | binding [4] | binding [5]
SMARCB1 (from UniProt Q12824 1-385) | binds | binds | – | – | –
SMARCC1 (from UniProt Q92922 1-1105) | – | – | binds | – | –
SMARCC2 (from UniProt Q8TAQ2 1-1214) | binds | binds | – | – | –
B1 | – | – | – | binds | binds
